Data reported in publication PMC9490837, “Electronic Coupling in 1,2,3-Triazole Bridged Ferrocenes and Its Impact on Reactive Oxygen Species Generation and Deleterious Activity in Cancer Cells” (Inorganic Chemistry, 2022).

What was measured:
BEAS-2B cells = assay: Crystal violet cell viability / antiproliferative assay, BEAS-2B; format: cell-based; conditions: nonmalignant human bronchial epithelium BEAS-2B cells, treatment time 72 h
Procedure: (§1) Human non-small-cell lung cancer cell lines A549 and H1975 and the human bronchial epithelial BEAS-2B cell line were purchased from ATCC (Manassas, VA). Cells were cultured in Roswell Park Memorial Institute (RPMI)-1640 media supplemented with 10% v/v fetal bovine serum, 100 U·mL^–1 penicillin, and 100 μg·mL^–1 streptomycin. Cells were grown in a humidified atmosphere at 37 °C and 5% CO2.
(§2) Crystal violet staining was used to assess cell viability. Cells were seeded in a 24-well plate and incubated with 20 μM concentration of compounds 1a, 1c, 2a, and 2c and tamoxifen, 5-fluorouracil, and cisplatin, with or without 50 μM NAC. After 72 h, the medium was discarded and cells were stained for 30 min with 5% w/v crystal violet solution in 66% v/v methanol, 200 μL per well. After staining, the crystal violet solution was removed, and the 24-well plate was washed with water to eliminate the excess solution. When dried, the plates were photographed. Quantitation of crystal violet staining was performed after solubilizing the dye in 10% acetic acid, 400 μL per well, and reading the absorbance of each well at 540 nm (HT Synergy 96-well microplate reader, Bio-Tek Instruments, Winooski, VT). The relative absorbance of untreated cells was considered as 100% viability; results were expressed as a percentage of viable cells vs untreated cells. […]

A549 cells = assay: Crystal violet cell viability / antiproliferative assay, A549; format: cell-based, human
Procedure: as §1, §2

H1975 cells = assay: Crystal violet cell viability / antiproliferative assay, H1975; format: cell-based, human
Procedure: as §1, §2

IC50 (A549 cells; human NSCLC A549 cells, treatment time 72 h): 72 ± 9 µM
IC50 (H1975 cells; NCI-H1975, human NSCLC H1975 cells, treatment time 72 h): 37 ± 5 µM
Structure (SMILES): CC/C(=C(\c1ccccc1)c1ccc(OCCN(C)C)cc1)c1ccccc1 [tamoxifen, reference compound]
IC50 (BEAS-2B cells): 9 ± 0.2 µM
Selectivity index SInd, A549 (A549 cells; IC50(BEAS-2B)/IC50(A549), 72 h): 0.1
Selectivity index SInd, H1975 (H1975 cells; IC50(BEAS-2B)/IC50(H1975), 72 h): 0.2
